Article PMC5719079
These are yes or no findings as the source states them, for the method shown. In cells and extracts the contact can be indirect. Some results given as binding are weak or reduced against the parent protein; the word gives no strength. Where a sequence is shown, tags or fusion partners need not be part of it.

Experiments:
[1] = biological target: T1, V^N-SIRT2 (SIRT2 fused to the N-terminal fragment of Venus, BiFC construct) (human) (UniProt Q8IXJ6); assay: split reporter; BiFC competition in HeLa cells: V^C-TPPP/p25 and V^N-SIRT2 with an additional 0.1 μg unlabelled TPPP/p25 or α-synuclein construct; BiFC signal quantified in at least 90 cells
T1 sequence: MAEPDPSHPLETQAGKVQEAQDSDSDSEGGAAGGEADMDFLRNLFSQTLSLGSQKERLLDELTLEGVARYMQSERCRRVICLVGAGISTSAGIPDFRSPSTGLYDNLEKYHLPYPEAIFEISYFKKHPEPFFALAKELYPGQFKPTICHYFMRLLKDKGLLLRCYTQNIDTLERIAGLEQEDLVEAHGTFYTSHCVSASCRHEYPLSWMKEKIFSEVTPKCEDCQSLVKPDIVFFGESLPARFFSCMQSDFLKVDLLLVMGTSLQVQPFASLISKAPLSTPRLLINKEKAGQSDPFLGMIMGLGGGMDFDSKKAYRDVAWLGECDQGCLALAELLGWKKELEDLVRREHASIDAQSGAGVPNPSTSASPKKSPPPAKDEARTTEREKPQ

[2] = biological target: T1, V^N-SIRT2 (SIRT2 fused to the N-terminal fragment of Venus, BiFC construct) (human); assay: split reporter; BiFC with split Venus in HeLa cells transfected with V^C-TPPP/p25 and V^N-SIRT2 (0.3 μg of each plasmid), fixed cells, fluorescence microscopy; 20 μM MZ25 for 3 hours left the signal unchanged

Substance | binding [1] | binding [2]
Unlabelled TPPP/p25 (co-transfected competitor) (from UniProt O94811 1-219) | binds | –
V^C-TPPP/p25 (human full length TPPP/p25 fused to the C-terminal fragment of Venus, BiFC construct) (from UniProt O94811 1-219) | binds | binds
